Test results reported in patent publication US10849879B2, “Localized modulation of tissues and cells to enhance therapeutic effects including renal denervation” (Mercator MedSystems, Inc., priority 2011, dated 2020).

Columns and labels:
[1] = tested on: Rat SCG: Primary rat superior cervical ganglia cells; conditions: pH 9.3
[2] = tested on: neuronal cell lines
[3] = tested on: renal sympathetic nerves; conditions: pig, pH 9.3
[4] = tested on: harvested and cultured rat superior cervical ganglia neurons; conditions: pH of 7.2; primary rat superior cervical ganglia neurons in culture; cited from earlier work

SMILES: NC(N)=NCCN1CCCCCCC1 [guanethidine, 2-[2-(azocan-1-yl)ethyl]guanidine]
- toxicity [1]: dose-dependent toxicity
- toxicity in response to guanethidine [2]: dose-dependent effects
- neurotoxicity in vivo [3]: significant observable neurotoxicity
- cytotoxicity [4]: lack of cytotoxicity
